Experimental data: PMC5345878

Tests used:
[1] = target: Histone variant H2A.B.3 (mouse); experiment: co-IP; round spermatids fractionated (LSBD buffer, 250 mM and 500 mM KCl); chromatin fraction sonicated and treated with benzonase; immunoprecipitation with affinity purified H2A.B.3 antibodies; western blotting
[2] = target: Histone variant H2A.B.3 (mouse); experiment: co-IP; total cellular lysates of UV-irradiated germ cells from 28-30 day mouse testis, no formaldehyde, chromatin mechanically sheared; half treated with RNase I (800 units, 30 min at 37°C), half not; immunoprecipitated with H2A.B.3 antibodies; western blotting

binding [1]: binds
binding [2]: binds
B1: Splicing factor 3B subunit 1 SF3b155 (protein, UniProt Q99NB9 1-1304)
chain: MAKIAKTHEDIEAQIREIQGKKAALDEAQGVGLDSTGYYDQEIYGGSDSRFAGYVTSIAATELEDDDDDYSSSTSLLGQKKPGYHAPVALLNDIPQSTEQYDPFAEHRPPKIADREDEYKKHRRTMIISPERLDPFADGGKTPDPKMNARTYMDVMREQHLTKEEREIRQQLAEKAKAGELKVVNGAAASQPPSKRKRRWDQTADQTPGATPKKLSSWDQAETPGHTPSLRWDETPGRAKGSETPGATPGSKIWDPTPSHTPAGAATPGRGDTPGHATPGHGGATSSARKNRWDETPKTERDTPGHGSGWAETPRTDRGGDSIGETPTPGASKRKSRWDETPASQMGGSTPVLTPGKTPIGTPAMNMATPTPGHIMSMTPEQLQAWRWEREIDERNRPLSDEELDAMFPEGYKVLPPPAGYVPIRTPARKLTATPTPLGGMTGFHMQTEDRTMKSVNDQPSGNLPFLKPDDIQYFDKLLVDVDESTLSPEEQKERKIMKLLLKIKNGTPPMRKAALRQITDKAREFGAGPLFNQILPLLMSPTLEDQERHLLVKVIDRILYKLDDLVRPYVHKILVVIEPLLIDEDYYARVEGREIISNLAKAAGLATMISTMRPDIDNMDEYVRNTTARAFAVVASALGIPSLLPFLKAVCKSKKSWQARHTGIKIVQQIAILMGCAILPHLRSLVEIIEHGLVDEQQKVRTISALAIAALAEAATPYGIESFDSVLKPLWKGIRQHRGKGLAAFLKAIGYLIPLMDAEYANYYTREVMLILIREFQSPDEEMKKIVLKVVKQCCGTDGVEANYIKTEILPPFFKHFWQHRMALDRRNYRQLVDTTVELANKVGAAEIISRIVDDLKDEAEQYRKMVMETIEKIMGNLGAADIDHKLEEQLIDGILYAFQEQTTEDSVMLNGFGTVVNALGKRVKPYLPQICGTVLWRLNNKSAKVRQQAADLISRTAVVMKTCQEEKLMGHLGVVLYEYLGEEYPEVLGSILGALKAIVNVIGMHKMTPPIKDLLPRLTPILKNRHEKVQENCIDLVGRIADRGAEYVSAREWMRICFELLELLKAHKKAIRRATVNTFGYIAKAIGPHDVLATLLNNLKVQERQNRVCTTVAIAIVAETCSPFTVLPALMNEYRVPELNVQNGVLKSLSFLFEYIGEMGKDYIYAVTPLLEDALMDRDLVHRQTASAVVQHMSLGVYGFGCEDSLNHLLNYVWPNVFETSPHVIQAVMGALEGLRVAIGPCRMLQYCLQGLFHPARKVRDVYWKIYNSIYIGSQDALIAHYPRIYNDDKNTYIRYDLDYIL

These are yes or no findings as the source states them, for the method shown. Binding seen in cells or lysates may run through a third protein. Binding can be weak; no strength is given.
